We go through 40 molecules from PubChem BioAssay AID493014 (National Center for Advancing Translational Sciences (NCATS), 2011).

The other results are listed elsewhere or left out. The main result of the screen is listed elsewhere. These columns were measured beside it and carry no call. Compounds called inactive in the main read-out are mostly missing here. The note in brackets gives the kind of curve behind each potency; many fits are weak.

The test in a line: qHTS Assay to Find Inhibitors of Chronic Active B-Cell Receptor Signaling. As to conditions: ABC-DLBCL IkBa-CBG/CBR reporter, luminescence ratio (green luciferase fused to IkBa over red control in TMD8 lymphoma cells), 4 h. In a few lines:
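Doxycycline induced both beetle luciferases in TMD8 lymphoma cells; IKK-driven degradation limits the IkappaBalpha-fused green signal, while red luminescence normalises for cell number and nonspecific effects. Compounds tested up to 46 uM, 4 hrs.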
For orientation: In qHTS, concentration-response curves come from the screen itself.

[1] abbreviates: measured here: CBR red luminescence, cell number.
Where [2] appears, read: measured here: IkBa-CBG green luminescence.

Turning to `CCC(=O)NC(=S)Nc1cccc(NC(=O)c2ccccc2Cl)c1`, the AC50 (in general, the concentration giving half of the maximal activity seen) under setting [1] is 0.794 µM [falling, partial curve, poor fit]. On the same count and under the same terms, to `COc1ccccc1NC(=O)N1CCN(CCc2ccccc2)CC1` belongs 35.5 µM [falling, single point]; to `CN(Cc1nc2c(s1)CCCC2)C(=O)CCc1nnc(-c2ccccc2)o1`, 10 µM [rising, partial curve, poor fit]; to `COc1ccc2[nH]cc(CCNS(=O)(=O)c3ccccc3)c2c1`, 35.5 µM [rising, single point]. Still for that read-out and setting: the result for `CCOC(=O)/C=C/c1ccc2oc3ccccc3c(=O)c2c1` reads 20 µM [rising, partial curve, poor fit]; that for `Cc1ccc(S(=O)(=O)N2CCC(C(=O)N3CCC3)CC2)cc1`, 2.82 µM [rising, full curve, poor fit]. For `COc1cccc(Nc2nc(Nc3ccc(Cl)c(C(=O)O)c3)nc(C)c2[N+](=O)[O-])c1`, the AC50 is, setting by setting: under setting [1], 1.84 µM [falling, partial curve, poor fit]; under setting [2], 1.16 µM [rising, full curve, poor fit]. On to `CCn1c(=O)cc(OCC(=O)NCc2ccco2)c2ccccc21`, for which, under setting [1], the concentration at half-maximal activity (AC50) is 25.1 µM [rising, single point]. The same measure, in the same setting: the result for `Cc1ccccc1Nc1nc(N)nc(COC(=O)c2ccccc2)n1` reads 2.31 µM [rising, partial curve, poor fit]; that for `Cc1ccc(C(=O)NCC(=O)OCC(=O)Nc2ccccc2C#N)s1`, 28.2 µM [rising, single point]. Still for that read-out and setting: to `N/C(=N\OC(=O)c1cccc(Cl)c1)c1ccccn1` belongs 8.2 µM [falling, partial curve]. The same measure, in the same setting: the result for `Cc1cc(C)cc(NC(=O)c2sc3nc(C)cc(C)c3c2N)c1` reads 12.6 µM [falling, partial curve, poor fit]; that for `CC(=O)c1ccc(N2CCN(S(=O)(=O)c3cc4c(cc3C)NC(=O)CO4)CC2)cc1`, 17.8 µM [rising, single point].

Regarding `O=C(/C=C(\O)c1ccccc1)C(=O)NNC(=O)c1ccccc1[N+](=O)[O-]`, under setting [1], the AC50 is 4.47 µM [falling, full curve]. On the same count and under the same terms, the result for `OCCCCc1nccc2c1[nH]c1ccccc12` reads 25.1 µM [falling, single point]; that for `Cc1nn(-c2cccc(Cl)c2)c2c1C(c1ccncc1)C(C#N)=C(N)O2` (configuration not stated), 0.0146 µM [rising, full curve, poor fit]; that for `CCC(CC)C(=O)N1CCN(Cc2ccc3c(c2)OCO3)CC1`, 29.1 µM [falling, single point].

For the molecule `COc1ccccc1CNC(=O)c1cc2ccccc2o1`, the AC50 under setting [1] is 0.355 µM [falling, full curve, poor fit]. Regarding `COc1cc2cc(C(=O)N3CCC(Cc4ccccc4)CC3)[nH]c2cc1OC`, the AC50 under setting [1] was 28.2 µM [rising, single point].

As to `c1ccc(-c2cc(-c3ccc(N4CCOCC4)cc3)nc3ccccc23)cc1`, the AC50 under setting [1] was 16.4 µM [rising, partial curve, poor fit]. The same measure, in the same setting: to `Cc1ccc(OCCNC(=O)c2cncc(Br)c2)cc1C` belongs 0.562 µM [rising, full curve]; to `N#Cc1ccncc1Sc1ccc(Cl)cc1`, 12.6 µM [rising, partial curve, poor fit]. Same read-out and setting: the result for `COc1ccc(NC(=O)Nc2ccc(F)cc2F)cc1` reads 10 µM [falling, partial curve]. Still for that read-out and setting: to `O=C(NCc1cccc2ccccc12)c1cccs1` belongs 6.51 µM [rising, full curve]; to `Cc1ccc(C(=O)NCCc2ccccc2)cc1S(=O)(=O)N1CCOCC1`, 29.1 µM [rising, single point]; to `CCOC(=O)c1ccc(-c2c(C)cc3oc(=O)cc(-c4ccccc4)c3c2C)cc1`, 2.59 µM [rising, full curve, poor fit]. Take `COc1cc(OC)c2c(-c3cccc(-c4cccc(N)c4)c3)cc(=O)oc2c1`: the AC50 under setting [1] was 4.11 µM [rising, full curve, poor fit] and the AC50 under setting [2] is 18.4 µM [falling, partial curve]. Regarding `COc1ccc(NC(=O)C(=O)NCC(c2ccco2)N2CCc3ccccc32)cc1` (configuration not stated), the AC50 under setting [1] is 0.0517 µM [falling, full curve, poor fit]. Same read-out and setting: to `CCC1CCCCN1CCCNC(=O)c1ccc2nc(N3CCC(C)CC3)sc2c1` (configuration not stated) belongs 0.316 µM [falling, full curve, poor fit]; to `CCC1=C(OC(=O)N(CC)CC)N2C(=O)OC(=NCC(=O)OC)[C@]2(Cc2ccccc2)[C@H]2C1=CC[C@H]1C(=O)N(c3ccccc3)C(=O)[C@H]12`, 3.98 µM [falling, partial curve, poor fit]; to `CCOC(=O)c1c(NS(=O)(=O)Cc2ccccc2)sc2c1CCCC2`, 1.84 µM [rising, partial curve, poor fit]. On the same count and under the same terms, to `CCCCC(=O)Nc1ccccc1C(C)C` belongs 22.4 µM [rising, partial curve, poor fit]; to `CCOC(=O)c1c(NC(=O)Cn2nnc3ccccc32)sc2c1CCC(C)C2` (configuration not stated), 12.6 µM [falling, partial curve]. Turning to `O=C(Cc1cccs1)Nc1ccccc1NC(=O)Cc1cccs1`, the AC50 under setting [1] is 11.6 µM [rising, partial curve, poor fit]. Still for that read-out and setting: the result for `O=C(c1ccc(S(=O)(=O)Cc2cc(F)ccc2F)c([N+](=O)[O-])c1)N1CCCCC1` reads 2.59 µM [falling, full curve, poor fit]; that for `CCOC(=O)c1nn(-c2ccc3ccccc3c2)cc1O`, 11.2 µM [falling, single point]; that for `O=C(Nc1ccc(N2CCCCC2)c(Cl)c1)c1ccc2c(c1)OCCO2`, 14.6 µM [rising, partial curve]. On to `O=C(Nc1scc(-c2ccccc2)c1C(=O)O)c1ccco1`, for which the AC50 under setting [1] was 14.6 µM [falling, partial curve]. On the same count and under the same terms, to `O=C(Nc1ccc(S(=O)(=O)NCc2ccccc2)cc1)Nc1ccc2c(c1)OCO2` belongs 25.9 µM [rising, partial curve, poor fit].

As for `CCOc1ccc(C2=CC(c3cc(Br)ccc3F)n3ncnc3N2)cc1Cl` (configuration not stated), the AC50 under setting [1] was 35.5 µM [falling, single point].
